We go through 1 substance from paper PMC3688941, “Characterization of a Chitin-Binding Protein from Bacillus thuringiensis HD-1” (PLoS ONE, 2013).

Amino acid sequences for entries named in this document (tags omitted). A change or cut given only in a name is not applied to a line headed by its entry.
UniProt E5L4Y0: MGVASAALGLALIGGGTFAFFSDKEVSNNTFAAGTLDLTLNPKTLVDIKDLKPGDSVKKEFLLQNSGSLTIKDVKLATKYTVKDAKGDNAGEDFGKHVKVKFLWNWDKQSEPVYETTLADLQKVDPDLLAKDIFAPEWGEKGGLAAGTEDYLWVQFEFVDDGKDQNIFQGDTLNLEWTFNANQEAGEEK
UniProt P05068: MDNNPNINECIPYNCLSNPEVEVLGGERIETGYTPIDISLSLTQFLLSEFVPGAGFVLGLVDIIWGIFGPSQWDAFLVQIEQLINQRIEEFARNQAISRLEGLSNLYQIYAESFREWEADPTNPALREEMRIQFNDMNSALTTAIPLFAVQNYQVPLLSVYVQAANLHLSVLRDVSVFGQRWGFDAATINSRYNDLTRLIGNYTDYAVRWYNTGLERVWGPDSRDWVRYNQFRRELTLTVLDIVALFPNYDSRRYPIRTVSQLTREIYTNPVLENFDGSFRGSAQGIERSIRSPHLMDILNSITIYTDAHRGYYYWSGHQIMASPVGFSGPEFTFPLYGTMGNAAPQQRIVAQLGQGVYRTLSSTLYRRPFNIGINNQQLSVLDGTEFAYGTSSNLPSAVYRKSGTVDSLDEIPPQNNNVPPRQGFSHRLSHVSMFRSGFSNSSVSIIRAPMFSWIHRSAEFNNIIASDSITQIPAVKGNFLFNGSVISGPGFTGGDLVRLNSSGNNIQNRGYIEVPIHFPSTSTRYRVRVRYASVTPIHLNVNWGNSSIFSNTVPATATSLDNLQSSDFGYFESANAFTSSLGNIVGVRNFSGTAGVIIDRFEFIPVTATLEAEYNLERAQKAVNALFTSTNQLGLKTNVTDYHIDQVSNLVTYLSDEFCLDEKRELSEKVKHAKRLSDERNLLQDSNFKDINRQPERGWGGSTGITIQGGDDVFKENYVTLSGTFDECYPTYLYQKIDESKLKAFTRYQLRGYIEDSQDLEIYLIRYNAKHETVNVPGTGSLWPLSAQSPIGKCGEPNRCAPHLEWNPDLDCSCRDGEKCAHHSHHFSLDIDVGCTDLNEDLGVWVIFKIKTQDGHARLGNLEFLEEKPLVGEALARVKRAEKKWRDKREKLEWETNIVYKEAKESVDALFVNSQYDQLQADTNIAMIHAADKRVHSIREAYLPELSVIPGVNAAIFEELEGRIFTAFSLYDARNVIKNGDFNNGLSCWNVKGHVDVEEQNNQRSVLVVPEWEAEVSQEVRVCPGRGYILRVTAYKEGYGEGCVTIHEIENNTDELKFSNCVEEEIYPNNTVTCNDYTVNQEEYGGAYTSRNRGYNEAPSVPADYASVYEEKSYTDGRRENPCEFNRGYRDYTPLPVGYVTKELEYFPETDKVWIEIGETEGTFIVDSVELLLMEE

No constants are given. Whether binding was seen depends on the method and setting. Binding calls can cover weak binding; strength is not graded here.

For experiment [1], the target named is recombinant Bt-CBP21 (chitin-binding protein of Bacillus thuringiensis HD-1), 6X His (Bacillus thuringiensis HD-1) (UniProt E5L4Y0). Description: pull-down; both purified.
For experiment [2] the target is unchanged. Description: circular dichroism; 150 µg of each purified protein, mixture 1:1, 10 mM sodium-phosphate pH 7.0, 24°C; spectrum of the mixture against the single spectra; both purified. For orientation: Circular dichroism is the unequal absorption of left and right circularly polarised light.

In the case of “Cry1Ac protoxin (130 kDa) (from UniProt P05068 1-1178)”, the binding entry in experiment [1] and in experiment [2] was “binds” in each case.
